Source: PubChem BioAssay AID2685 (National Center for Advancing Translational Sciences (NCATS), 2010)
The list shows a part of the results. Further columns of the screen follow, without active or inactive calls. The list favours compounds with an active or inconclusive main result. The note in brackets gives the kind of curve behind each potency; many fits are weak.

Assay: qHTS Assay for Lipid Storage Modulators in Drosophila S3 Cells;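 on cell number change: cells counted by Cell Tracker Red CMTPX staining in the red channel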
Settings: BODIPY lipid droplet fluorescence, 18-24 h; for cell number change: measured here: cell count max response, cells fed with added oleic acid
Method in brief: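 Drosophila S3 cells got compounds at several concentrations plus oleic acid (400 uM solution). Laser-scanning cytometry with 488 nm excitation read lipid droplets at 500-530 nm and cells at 575-640 nm. Percent activity was relative to 20 uM Triacsin C.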

[1] = measured here: lipid fluorescence (Fed channel) AC50, cells fed with added oleic acid
[2] = measured here: cell number channel AC50, cells fed with added oleic acid

Structure (SMILES): O=C(Nc1cccc(F)c1)C1CCN(S(=O)(=O)c2cnc[nH]2)CC1
- cell number change: 2.95%

Structure (SMILES): CCOC(=O)n1c(=O)n(C)c2ccc(Cl)cc21
- cell number change: 13.7%

Structure (SMILES): CCCc1cc(=O)[nH]c(=S)[nH]1
- cell number change: 13.6%
- AC50 [1]: 0.116 µM [falling, full curve, poor fit]

Structure (SMILES): Cn1c(Cn2c(C(F)(F)F)nc3ccccc32)nc2ccccc21
- cell number change: 24.7%
- AC50 [2]: 0.651 µM [rising, full curve, poor fit]
- AC50 [1]: 29.1 µM [rising, single point]

Structure (SMILES): NC(=O)COC(=O)c1cc(Cl)cc(Cl)c1N
- cell number change: 30.6%
- AC50 [2]: 35.5 µM [rising, single point]

Structure (SMILES): CN(C)c1nc(C(F)(F)F)cc(=O)[nH]1
- AC50 [2]: 6.51 µM [rising, single point]

Structure (SMILES): COc1ccc(CCC(=O)Nc2ccc(S(=O)(=O)N3CCCC3)cc2)cc1OC
- cell number change: -22.6%
- AC50 [1]: 0.82 µM [rising, full curve, poor fit]

Structure (SMILES): CO/N=C/C(=N\Nc1ccccc1)C(=O)c1ccccc1
- cell number change: 34.8%
- AC50 [2]: 13 µM [rising, single point]

Structure (SMILES): Cc1cccc(NC(=S)N(CCN2CCOCC2)Cc2ccccc2F)c1
- cell number change: 45.6%
- AC50 [2]: 29.1 µM [rising, single point]
- AC50 [1]: 29.1 µM [rising, single point]

Structure (SMILES): O=S(=O)(c1ccc2c(c1)CCCC2)N1CCNCC1
- cell number change: 16.8%
- AC50 [1]: 0.731 µM [falling, single point]

Structure (SMILES): Cc1ccc(C)n1-c1nn(S(=O)(=O)c2cccc3cccnc23)c2cccc(F)c12
- AC50 [1]: 29.1 µM [rising, single point]

Structure (SMILES): CCCCc1nnc(NC(=O)CSc2nc(O)c(Cc3ccccc3)c(=O)[nH]2)s1
- AC50 [1]: 1.3 µM [rising, full curve, poor fit]

Structure (SMILES): O=C(CN1c2cccc3cccc(c23)S1(=O)=O)Nc1ccccc1F
- cell number change: 0.451%
- AC50 [1]: 4.11 µM [rising, full curve]

Structure (SMILES): COc1ccc(-c2csc3nc(C)n(-n4cccc4)c(=O)c23)cc1OC
- cell number change: -1.92%
- AC50 [1]: 29.1 µM [falling, single point]

Structure (SMILES): O=S(=O)(c1ccccc1)c1cc(O)ccc1O
- cell number change: 18.5%
- AC50 [1]: 29.1 µM [rising, single point]

Structure (SMILES): CC(C)(C)CNC(CO)C12CC3CC(CC(C3)C1)C2 (stereo not given)
- cell number change: -6%
- AC50 [1]: 29.1 µM [falling, single point]

Structure (SMILES): O=C(O)c1ccc(N2CCCCCC2)c(N2C(=O)c3ccccc3C2=O)c1
- cell number change: -19.8%
- AC50 [1]: 20.6 µM [falling, single point]

Structure (SMILES): CN(c1ccc(F)cc1)S(=O)(=O)c1ccc(Cl)c(C(=O)Nc2ccc3c(c2)CCC3)c1
- cell number change: -16.3%
- AC50 [1]: 13 µM [falling, partial curve, poor fit]

Structure (SMILES): CCN(c1ccc(C)cc1)S(=O)(=O)c1nnc(NC(=O)c2ccco2)s1
- cell number change: -15%

Structure (SMILES): COc1ccc(CNC(=O)c2c(C)oc3c2C(=O)c2ccccc2C3=O)cc1
- cell number change: 12.7%
- AC50 [1]: 2.31 µM [rising, partial curve, poor fit]

Structure (SMILES): COc1ccc(NS(=O)(=O)c2cc(Br)cc3c2N(C(C)=O)CC3)cc1
- cell number change: -12.4%
- AC50 [1]: 9.2 µM [falling, single point]

Structure (SMILES): CCC1Oc2ccc(C)cc2N(CC(=O)NCc2ccco2)C1=O (stereo not given)
- cell number change: -12%
- AC50 [1]: 0.651 µM [falling, full curve, poor fit]

Structure (SMILES): CC(C)(Oc1ccc(Cl)cc1)C(=O)O/N=C(\N)c1ccncc1
- cell number change: -4.17%

Structure (SMILES): CCN(CC(=O)Nc1ccc(OC)cc1)C(=O)CSCc1c(C)noc1C
- cell number change: -6.28%

Structure (SMILES): COC(=O)c1ccc(N)c(CS(=O)(=O)c2ccc(Cl)cc2)c1
- cell number change: -8.33%

Structure (SMILES): O=C1c2cccnc2C(Nc2ccccc2Br)N1Cc1ccco1 (stereo not given)
- cell number change: 15%
- AC50 [1]: 6.51 µM [rising, single point]

Structure (SMILES): CC(=O)N1c2ccc(S(=O)(=O)NCCC(=O)NCc3ccc(Cl)cc3)cc2CC1C (stereo not given)
- cell number change: -8.07%

Structure (SMILES): CN(c1ncc(C(F)(F)F)cc1Cl)n1cc(C(=O)O)c2ccccc2c1=O
- cell number change: 28.7%

Structure (SMILES): c1ccc(-n2cnnc2SCc2cn3ccsc3n2)cc1
- cell number change: 1.91%
- AC50 [1]: 2.31 µM [rising, full curve]

Structure (SMILES): O=C(CCCN1C(=O)/C(=C/c2ccccc2Cl)SC1=S)NNC(=O)c1ccccc1Cl
- cell number change: -0.751%
- AC50 [1]: 8.2 µM [falling, partial curve, poor fit]

Structure (SMILES): CN(C1CCCC1)C1CCN(C(=O)CNC(=O)/C=C/c2ccccc2)CC1
- cell number change: -2.57%
- AC50 [2]: 0.651 µM [rising, single point]

Structure (SMILES): Cc1ccc(C)c(C(=O)Nc2ccncc2)c1
- cell number change: 8.03%

Structure (SMILES): COc1ccc(Cl)cc1NC(=O)CN(C)C(=O)CNC(=O)C12CC3CC(CC(C3)C1)C2
- cell number change: 15.5%

Structure (SMILES): C=CCn1c(SCC(=O)Nc2ccc(S(N)(=O)=O)cc2)nnc1-c1cnccn1
- cell number change: 35.4%
- AC50 [2]: 23.1 µM [rising, single point]

Structure (SMILES): CC(=O)Nc1ccc(NC(=O)C(C)OC(=O)/C=C/c2cccs2)cc1 (stereo not given)
- cell number change: 8.17%
- AC50 [1]: 0.116 µM [falling, full curve, poor fit]

Structure (SMILES): Cc1cccc(C(=O)N2CCN(c3ccc([N+](=O)[O-])c(N4CCOCC4)c3)CC2)c1
- cell number change: -17.5%
- AC50 [1]: 29.1 µM [falling, single point]

Structure (SMILES): COc1ccc(-c2nc3cc(NC(=O)Cc4ccc(OC)c(OC)c4)ccc3o2)cc1
- cell number change: -122%
- AC50 [2]: 1.84 µM [rising, partial curve]

Structure (SMILES): CC(=O)Nc1ccc(OC(=O)c2cccs2)cc1
- cell number change: -16.1%

Structure (SMILES): CCC(=O)Nc1nnc(SCC(=O)Nc2ccc3c(c2)OCO3)s1
- cell number change: -4.18%

Structure (SMILES): CCC(c1nnnn1C(C)(C)C)N1CCN(Cc2ccccc2OC)CC1 (stereo not given)
- cell number change: -21.8%
- AC50 [1]: 29.1 µM [falling, single point]

Structure (SMILES): COCCNc1nnc(SCC(=O)NC2CCCCC2)s1
- cell number change: -22.7%
- AC50 [1]: 6.51 µM [falling, partial curve, poor fit]

Structure (SMILES): COc1ccc(/C=C/C(=O)c2ccccc2)cc1Cn1nnc2ccccc21
- cell number change: -17%
- AC50 [1]: 29.1 µM [falling, single point]

Structure (SMILES): CS(=O)(=O)n1nc(OC(=O)c2cc(Br)ccc2Cl)cc1N
- cell number change: -10.7%
- AC50 [1]: 3.26 µM [rising, single point]

Structure (SMILES): O/N=C(\c1ccccn1)C1CC1c1ccccc1 (stereo not given)
- cell number change: 47.8%
- AC50 [2]: 0.103 µM [rising, full curve, poor fit]
- AC50 [1]: 7.31 µM [rising, partial curve, poor fit]

Structure (SMILES): Cc1ccc(CNC(=O)C(=O)NCCC2CCCCN2S(=O)(=O)c2ccc(C)cc2)cc1 (stereo not given)
- cell number change: -49%
- AC50 [2]: 29.1 µM [falling, single point]

Structure (SMILES): N#Cc1c(-c2ccccc2)nc2n1CCS2
- cell number change: 12.1%
- AC50 [2]: 0.00461 µM [rising, full curve, poor fit]

Structure (SMILES): CC1CCN(S(=O)(=O)c2ccc(C(=O)Nc3sccc3C(N)=O)cc2)CC1
- cell number change: -19.4%
- AC50 [1]: 29.1 µM [falling, single point]

Structure (SMILES): COc1ccc2c(Cl)c(C(=O)NN)sc2c1
- cell number change: -22.9%
- AC50 [1]: 0.82 µM [falling, full curve, poor fit]

Structure (SMILES): CCOC(=O)c1c(NC(=O)/C=C/c2ccc3c(c2)OCO3)sc(C)c1CC
- cell number change: 52.6%
- AC50 [2]: 32.6 µM [rising, partial curve, poor fit]
- AC50 [1]: 5.8 µM [rising, full curve]

Structure (SMILES): Cn1c(=O)c2c(nc(NCc3ccco3)n2C)n(C)c1=O
- cell number change: 4.53%

Structure (SMILES): CC(C)NC(=O)CN(C(=O)CCC(=O)Nc1nccs1)c1ccc(C(C)C)cc1
- cell number change: 0.525%

Structure (SMILES): CCC(=O)Nc1ccc(S(=O)(=O)Nc2cccnc2)cc1
- cell number change: -1.76%
- AC50 [1]: 4.11 µM [falling, partial curve]

Structure (SMILES): CCOC(=O)c1ccc2c(c1)nc(-c1ccc(F)cc1)c1nccn12
- cell number change: -56.4%
- AC50 [2]: 29.1 µM [falling, partial curve, poor fit]
- AC50 [1]: 4.11 µM [rising, partial curve]

Structure (SMILES): O=C1c2ccccc2C(=O)N1CCCCCCc1ccccc1
- cell number change: -4.4%
- AC50 [1]: 29.1 µM [falling, partial curve, poor fit]

Structure (SMILES): CCc1nc2ccccc2c(C(=O)OCC(=O)Nc2cccc(S(=O)(=O)N3CCOCC3)c2)c1C
- cell number change: -22.4%
- AC50 [1]: 0.0058 µM [falling, full curve, poor fit]

Structure (SMILES): CC(C)(C)C(=O)N1CCC(O)(CS(=O)(=O)c2ccc(Cl)c(Cl)c2)CC1
- cell number change: 45%
- AC50 [2]: 29.1 µM [rising, single point]

Structure (SMILES): Nc1cccc2nc3ccccc3cc12
- cell number change: -21.2%
- AC50 [1]: 16.4 µM [falling, single point]

Structure (SMILES): CN(C(=O)CSc1nnnn1-c1ccccc1)C1CCCCC1
- cell number change: -61%
- AC50 [2]: 4.61 µM [falling, full curve]

Structure (SMILES): CCOc1ccc(CNC(=O)CCc2cn(C)c3ccccc23)cc1OC
- cell number change: -123%
- AC50 [2]: 32.6 µM [falling, partial curve, poor fit]
- AC50 [1]: 29.1 µM [falling, partial curve]

Structure (SMILES): CN(Cc1ccc(Cl)s1)C(=O)CNC(=O)CNC(=O)c1ccc(Cl)cc1Cl
- cell number change: 25.8%
- AC50 [1]: 5.8 µM [rising, single point]

Structure (SMILES): CCOC(=O)c1c(C)[nH]c(C)c1C(=O)COC(=O)c1ccc(S(=O)(=O)C(F)F)cc1
- cell number change: -10.5%
- AC50 [1]: 0.164 µM [rising, full curve, poor fit]

Structure (SMILES): c1ccc(CNc2nc(CN3CCOCC3)nc3scc(-c4ccccc4)c23)cc1
- cell number change: -22.6%
- AC50 [1]: 8.2 µM [falling, partial curve]

Structure (SMILES): O=C(Cn1cccc1)N1CCN(c2ccc(F)cc2)CC1
- cell number change: -0.911%
- AC50 [1]: 4.11 µM [falling, full curve, poor fit]

Structure (SMILES): O=C(CN1C2=NCCN2c2ccccc21)C12CC3CC(CC(C3)C1)C2
- cell number change: 49.5%
- AC50 [2]: 23.1 µM [rising, single point]

Structure (SMILES): CCCCC(c1nnnn1CC1CCCO1)N1CCN(c2cc(Cl)ccc2C)CC1 (stereo not given)
- cell number change: 4.2%
- AC50 [2]: 1.84 µM [rising, partial curve, poor fit]
- AC50 [1]: 16.4 µM [rising, single point]
